Measured values as given in US12186342B2, “Autologous irradiated whole cell tumor vaccines lentivirally engineered to express CD80, IL-15 and IL-15 receptor alpha” (The Regents of the University of California, priority 2016, dated 2025).
At least one structure is not confirmed: it was looked up by name or label, or the drawing left a doubt.

Test system: 32Dp210 leukemia
Experiment: Dose-finding studies of chemotherapeutic regimens in advanced 32Dp210 leukemia
Assay type: in vivo, mice
Settings: data not shown
Protocol: The major clinical application of an autologous AML vaccine strategy would be as post-remission immunotherapy to prolong relapse free survival in patients with MRD. To recapitulate this clinical setting, we developed a murine model of MRD for testing our vaccine. Initially, several chemotherapeutic regimens, previously shown to induce transient responses in 32Dp210 leukemia, were tested^48. […] A different strategy was therefore adopted for achieving post-remission MRD in mice with high leukemia burdens by lentivirally engineering a 32Dp210 cell line to express the herpes thymidine kinase (HSV-TK) suicide gene^36. Using this approach, treatment with ganciclovir (GCV) could be used to induce remission without the confounding immune and cytopenic effects of conventional chemotherapy^49. In this context, GCV treatment should not have a direct impact on leukemia-associated immune deviation, except as associated with reduction of tumor burden, since effects of GCV are primarily restricted to suppression of marrow proliferation, but not inhibition of immune function^50.

## Cc1nc(Nc2ncc(C(=O)Nc3c(C)cccc3Cl)s2)cc(N2CCN(CCO)CC2)n1 [Dasatinib]
  outcome of dose-finding studies in leukemic mice: either ineffective, or resulted in both toxicity and lethality
